The values that follow come from PMC5173032.

These are yes or no findings as the source states them, for the method shown.

In the experiment the target is T1, 315L-368Sdel-FXII (human) (UniProt P00748).
T1 sequence: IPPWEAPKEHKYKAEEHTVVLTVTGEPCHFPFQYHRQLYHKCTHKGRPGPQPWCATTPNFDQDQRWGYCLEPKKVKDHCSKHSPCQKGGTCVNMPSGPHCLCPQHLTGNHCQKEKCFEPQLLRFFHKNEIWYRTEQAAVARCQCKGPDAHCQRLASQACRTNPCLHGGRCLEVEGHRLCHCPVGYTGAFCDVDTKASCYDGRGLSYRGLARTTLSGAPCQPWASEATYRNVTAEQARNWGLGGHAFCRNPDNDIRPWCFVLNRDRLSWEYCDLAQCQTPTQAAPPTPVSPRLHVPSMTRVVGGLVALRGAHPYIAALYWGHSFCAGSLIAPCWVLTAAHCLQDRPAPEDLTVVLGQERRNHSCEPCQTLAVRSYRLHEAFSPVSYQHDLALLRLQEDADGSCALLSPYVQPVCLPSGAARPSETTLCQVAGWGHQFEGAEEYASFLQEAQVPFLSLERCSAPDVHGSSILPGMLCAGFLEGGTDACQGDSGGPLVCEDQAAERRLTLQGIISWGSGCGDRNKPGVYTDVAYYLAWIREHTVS
As to the kind of experiment: co-IP; purified proteins: hPEPD, an hPEPD mutant or mSRC at 40 nM incubated with a coagulation factor, FXII or an FXII mutant at 0.5 μM in PBS, 100 μl, 2 h at 37°C; then a specific primary antibody at 4°C overnight, IP by protein G-agarose, IB; both purified.

B1: recombinant human prolidase (peptidase D, PEPD) (enzyme, UniProt P12955 1-493)
chain: MAAATGPSFWLGNETLKVPLALFALNRQRLCERLRKNPAVQAGSIVVLQGGEETQRYCTDTGVLFRQESFFHWAFGVTEPGCYGVIDVDTGKSTLFVPRLPASHATWMGKIHSKEHFKEKYAVDDVQYVDEIASVLTSQKPSVLLTLRGVNTDSGSVCREASFDGISKFEVNNTILHPEIVECRVFKTDMELEVLRYTNKISSEAHREVMKAVKVGMKEYELESLFEHYCYSRGGMRHSSYTCICGSGENSAVLHYGHAGAPNDRTIQNGDMCLFDMGGEYYCFASDITCSFPANGKFTADQKAVYEAVLRSSRAVMGAMKPGVWWPDMHRLADRIHLEELAHMGILSGSVDAMVQAHLGAVFMPHGLGHFLGIDVHDVGGYPEGVERIDEPGLRSLRTARHLQPGMVLTVEPGIYFIDHLLDEALADPARASFLNREVLQRFRGFGGVRIEEDVVVTDSGIELLTCVPRTVEEIEACMAGCDKAFTPFSGPK
Take B1: the binding entry is “no binding (tested: hPEPD 40 nM, FXII mutant 0.5 μM)”.
